Source: patent publication US5604256A, “Octahydronaphthalene oxime derivatives for cholesterol biosynthesis inhibition” (Sankyo Company, Limited, priority 1992, dated 1997)

Protein sequences, listed by entry. Tags and fused reporters are not part of them.
UniProt P51639, whole entry: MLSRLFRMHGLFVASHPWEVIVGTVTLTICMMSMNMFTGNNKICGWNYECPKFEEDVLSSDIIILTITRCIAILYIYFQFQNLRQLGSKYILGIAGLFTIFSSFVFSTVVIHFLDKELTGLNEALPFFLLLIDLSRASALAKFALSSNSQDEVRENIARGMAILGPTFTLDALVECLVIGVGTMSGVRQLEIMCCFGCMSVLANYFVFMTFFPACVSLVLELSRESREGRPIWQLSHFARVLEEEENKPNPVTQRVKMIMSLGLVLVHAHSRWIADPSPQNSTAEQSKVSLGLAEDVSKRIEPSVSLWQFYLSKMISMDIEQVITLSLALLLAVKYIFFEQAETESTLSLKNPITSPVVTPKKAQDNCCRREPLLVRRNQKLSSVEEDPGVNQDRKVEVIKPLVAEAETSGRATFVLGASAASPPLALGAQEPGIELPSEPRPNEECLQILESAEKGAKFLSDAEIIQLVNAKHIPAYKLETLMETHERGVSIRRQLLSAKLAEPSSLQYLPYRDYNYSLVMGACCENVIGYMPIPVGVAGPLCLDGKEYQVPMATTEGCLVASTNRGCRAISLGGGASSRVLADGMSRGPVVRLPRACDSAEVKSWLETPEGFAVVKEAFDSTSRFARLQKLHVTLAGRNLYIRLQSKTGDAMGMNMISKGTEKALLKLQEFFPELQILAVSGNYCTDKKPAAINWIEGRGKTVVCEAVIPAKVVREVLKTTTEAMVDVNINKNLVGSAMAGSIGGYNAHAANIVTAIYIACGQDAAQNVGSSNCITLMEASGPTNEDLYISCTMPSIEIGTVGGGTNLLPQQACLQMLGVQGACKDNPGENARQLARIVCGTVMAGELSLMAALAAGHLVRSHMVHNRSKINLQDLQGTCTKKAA

Molecular target: HMG-CoA reductase (Rattus norvegicus, UniProt P51639)
Conditions: for IC50: read-out: HMG-CoA reductase IC50, Table 3

IC50	Compound	activity compared with the directly comparable (original) hydroxy compounds (comparison in words, from Table 3)
604 nM	CCC(C)C(=O)OC1CC(C)C=C2C=CC(C)C(CCC(=O)CC(O)CC(=O)O)C21 (stereo not drawn)	–
487 nM	CCC(C)(C)C(=O)OC1CC(C)C=C2C=CC(C)C(CCC(=O)CC(O)CC(=O)O)C21 (stereo not drawn)	the activity is very much lower than in the original hydroxy compounds

The structures given here were assigned with low confidence; some may be wrong.
